Experimental data reported in PMC10276294, “Regulatory ligand binding in plant chalcone isomerase–like (CHIL) proteins” (The Journal of Biological Chemistry, 2023).

Assays:
[1] = molecular target: T1, Strep-tagged chalcone synthase from Arabidopsis thaliana (strep-AtCHS) (Arabidopsis thaliana) (UniProt P13114); experiment: pull-down; as a1, with 4.30 mM naringenin in binding and wash buffers (strep-AtCHS on StrepTactin Sepharose, untagged VvCHIL); both purified
T1 sequence: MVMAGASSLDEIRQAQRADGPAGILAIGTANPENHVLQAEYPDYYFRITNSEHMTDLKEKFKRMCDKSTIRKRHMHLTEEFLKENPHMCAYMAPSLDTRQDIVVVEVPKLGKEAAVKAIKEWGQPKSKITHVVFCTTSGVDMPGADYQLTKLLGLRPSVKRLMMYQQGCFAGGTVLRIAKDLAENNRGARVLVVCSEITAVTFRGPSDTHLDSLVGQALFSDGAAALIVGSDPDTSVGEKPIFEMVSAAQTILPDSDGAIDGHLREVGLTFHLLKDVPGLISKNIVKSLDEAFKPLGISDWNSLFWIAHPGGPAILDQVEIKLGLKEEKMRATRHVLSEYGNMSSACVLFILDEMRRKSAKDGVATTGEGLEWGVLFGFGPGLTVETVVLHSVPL

[2] = molecular target: T1, Strep-tagged chalcone synthase from Arabidopsis thaliana (strep-AtCHS) (Arabidopsis thaliana); experiment: pull-down; 1 mg strep-tagged CHS on 0.3 ml StrepTactin Sepharose, 0.5 mg untagged CHIL; room temperature; 150 mM NaCl, 50 mM Tris pH 8.0, 2 mM DTT, 2% DMSO; without ligand, or with naringenin or naringenin chalcone (NC) at the reported concentrations; eluted with desthiobiotin, SDS-PAGE and native PAGE, densitometry; both purified

binding [2]: binds
Substance: Chalcone isomerase-like protein from Vitis vinifera (VvCHIL)
binding [1]: no binding (only with 4.30 mM naringenin)

No constants are given. Whether binding was seen depends on the method and setting. For some assays here: Binding can be weak; no strength is given. Sequences can lack the tags named with a protein.
